Earlier results, collected in patent US20100136106A1, “Modified Release Famciclovir Compositions” (priority 2005, published 2010).
Where two headings read alike, the source gives them in different places.

In the case of `COC(=O)C(c1ccccc1)C1CCCCN1` (stereo not drawn) [methylphenidate, α-phenyl-2-piperidine acetic acid methyl ester], the “persistence of drug effects” value (oral administration of conventional IR tablets) is given as 3 to 6 h and the “persistence of drug effects” value (oral administration of extended release formulations) is given as “up to 8 hours”.
